Reference: the supplement of paper PMC6411743
± gives the standard deviation of the averaged measurements. Some of the results follow.

Sequences of proteins named here, by UniProt entry; tags and fusion partners are left off. A change or cut given only in a name is not applied to a line headed by its entry.
UniProt P07942: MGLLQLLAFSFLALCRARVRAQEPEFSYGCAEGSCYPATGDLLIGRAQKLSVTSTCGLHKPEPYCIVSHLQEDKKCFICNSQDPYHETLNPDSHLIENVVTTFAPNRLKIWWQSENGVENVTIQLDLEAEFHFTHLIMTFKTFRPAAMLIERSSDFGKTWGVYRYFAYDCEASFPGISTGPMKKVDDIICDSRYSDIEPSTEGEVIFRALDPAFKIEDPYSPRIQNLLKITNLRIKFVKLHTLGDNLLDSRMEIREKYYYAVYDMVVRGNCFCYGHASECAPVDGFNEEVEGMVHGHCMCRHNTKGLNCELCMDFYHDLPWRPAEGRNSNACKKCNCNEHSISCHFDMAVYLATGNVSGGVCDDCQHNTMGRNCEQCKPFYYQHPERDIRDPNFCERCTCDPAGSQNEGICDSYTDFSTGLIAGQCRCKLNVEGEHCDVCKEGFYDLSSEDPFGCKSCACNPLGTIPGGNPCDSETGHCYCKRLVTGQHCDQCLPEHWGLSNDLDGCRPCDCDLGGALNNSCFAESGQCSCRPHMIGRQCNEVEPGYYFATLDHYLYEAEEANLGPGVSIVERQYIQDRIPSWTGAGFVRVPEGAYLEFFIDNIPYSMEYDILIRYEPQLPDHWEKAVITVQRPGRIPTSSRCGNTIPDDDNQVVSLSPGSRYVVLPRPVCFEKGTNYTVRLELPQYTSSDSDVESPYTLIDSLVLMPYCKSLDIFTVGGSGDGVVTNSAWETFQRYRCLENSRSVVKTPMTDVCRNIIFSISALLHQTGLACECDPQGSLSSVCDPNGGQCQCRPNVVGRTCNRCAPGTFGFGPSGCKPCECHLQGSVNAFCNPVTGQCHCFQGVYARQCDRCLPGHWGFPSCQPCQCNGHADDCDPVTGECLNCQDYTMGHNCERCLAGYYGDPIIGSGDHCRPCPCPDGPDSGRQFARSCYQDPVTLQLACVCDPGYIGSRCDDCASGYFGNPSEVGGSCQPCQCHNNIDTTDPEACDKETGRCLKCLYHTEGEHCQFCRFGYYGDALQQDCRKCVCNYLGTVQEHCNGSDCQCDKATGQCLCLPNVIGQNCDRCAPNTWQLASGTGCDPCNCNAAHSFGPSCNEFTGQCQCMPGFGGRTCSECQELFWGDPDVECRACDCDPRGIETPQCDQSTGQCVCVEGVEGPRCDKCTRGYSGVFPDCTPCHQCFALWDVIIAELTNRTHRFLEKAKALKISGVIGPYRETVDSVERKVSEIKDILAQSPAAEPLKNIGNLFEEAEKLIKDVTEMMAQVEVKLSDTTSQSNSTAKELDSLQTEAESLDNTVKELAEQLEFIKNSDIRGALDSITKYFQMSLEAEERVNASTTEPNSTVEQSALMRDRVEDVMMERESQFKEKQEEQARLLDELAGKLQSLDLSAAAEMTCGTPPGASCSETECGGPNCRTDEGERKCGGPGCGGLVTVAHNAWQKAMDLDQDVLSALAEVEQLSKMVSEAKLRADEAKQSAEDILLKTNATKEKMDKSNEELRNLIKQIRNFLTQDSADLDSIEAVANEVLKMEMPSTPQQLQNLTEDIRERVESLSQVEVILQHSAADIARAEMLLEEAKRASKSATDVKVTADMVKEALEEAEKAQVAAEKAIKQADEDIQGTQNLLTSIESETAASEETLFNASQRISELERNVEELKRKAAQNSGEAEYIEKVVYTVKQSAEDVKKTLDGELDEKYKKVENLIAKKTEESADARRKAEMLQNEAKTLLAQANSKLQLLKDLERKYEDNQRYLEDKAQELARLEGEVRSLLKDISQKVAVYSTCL
UniProt P12814, whole entry: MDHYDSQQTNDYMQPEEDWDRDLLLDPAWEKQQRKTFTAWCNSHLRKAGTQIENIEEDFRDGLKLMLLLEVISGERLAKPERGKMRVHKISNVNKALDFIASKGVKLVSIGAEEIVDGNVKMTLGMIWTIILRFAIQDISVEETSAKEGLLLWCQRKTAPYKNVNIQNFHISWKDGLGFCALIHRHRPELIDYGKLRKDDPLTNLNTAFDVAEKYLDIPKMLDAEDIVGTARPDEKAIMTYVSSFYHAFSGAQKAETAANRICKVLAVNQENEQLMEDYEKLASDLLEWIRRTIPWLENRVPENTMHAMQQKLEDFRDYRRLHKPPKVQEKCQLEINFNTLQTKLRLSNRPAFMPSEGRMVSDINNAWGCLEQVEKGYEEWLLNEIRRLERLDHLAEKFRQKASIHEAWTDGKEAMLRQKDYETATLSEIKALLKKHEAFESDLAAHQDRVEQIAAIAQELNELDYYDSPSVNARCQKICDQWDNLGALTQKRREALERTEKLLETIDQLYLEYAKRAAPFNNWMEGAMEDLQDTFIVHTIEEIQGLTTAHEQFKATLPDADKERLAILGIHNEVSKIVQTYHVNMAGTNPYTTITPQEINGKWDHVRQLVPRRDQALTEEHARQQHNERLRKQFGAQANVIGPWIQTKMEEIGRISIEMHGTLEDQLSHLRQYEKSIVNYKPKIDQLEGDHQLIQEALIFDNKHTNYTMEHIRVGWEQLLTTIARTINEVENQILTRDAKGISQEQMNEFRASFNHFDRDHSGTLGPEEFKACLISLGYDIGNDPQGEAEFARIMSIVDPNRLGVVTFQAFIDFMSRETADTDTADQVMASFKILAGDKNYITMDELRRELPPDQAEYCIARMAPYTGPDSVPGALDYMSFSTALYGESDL
UniProt O14653: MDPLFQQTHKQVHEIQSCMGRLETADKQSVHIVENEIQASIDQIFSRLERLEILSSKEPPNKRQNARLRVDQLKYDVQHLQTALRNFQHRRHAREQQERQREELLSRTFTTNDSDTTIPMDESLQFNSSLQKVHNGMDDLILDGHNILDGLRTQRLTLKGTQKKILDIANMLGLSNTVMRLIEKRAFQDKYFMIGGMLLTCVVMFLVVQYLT
UniProt P61803: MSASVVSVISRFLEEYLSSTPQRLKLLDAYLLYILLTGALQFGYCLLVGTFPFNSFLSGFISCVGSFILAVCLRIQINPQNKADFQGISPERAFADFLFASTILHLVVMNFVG
UniProt P15586: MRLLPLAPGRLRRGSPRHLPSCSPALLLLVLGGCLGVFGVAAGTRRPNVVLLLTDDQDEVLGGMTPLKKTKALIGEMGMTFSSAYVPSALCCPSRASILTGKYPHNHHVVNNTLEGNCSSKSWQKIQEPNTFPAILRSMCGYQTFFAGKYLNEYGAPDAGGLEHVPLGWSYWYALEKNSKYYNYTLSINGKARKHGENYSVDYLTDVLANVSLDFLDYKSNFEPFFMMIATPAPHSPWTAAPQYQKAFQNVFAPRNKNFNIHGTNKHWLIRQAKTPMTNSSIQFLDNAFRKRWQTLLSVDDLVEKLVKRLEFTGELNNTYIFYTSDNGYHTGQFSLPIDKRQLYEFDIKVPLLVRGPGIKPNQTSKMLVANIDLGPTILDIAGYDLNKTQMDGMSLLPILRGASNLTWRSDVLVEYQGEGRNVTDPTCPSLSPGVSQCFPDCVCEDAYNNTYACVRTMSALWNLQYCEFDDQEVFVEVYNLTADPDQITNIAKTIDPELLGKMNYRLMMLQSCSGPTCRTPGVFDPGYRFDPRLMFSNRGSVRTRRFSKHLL
UniProt Q06609, whole entry: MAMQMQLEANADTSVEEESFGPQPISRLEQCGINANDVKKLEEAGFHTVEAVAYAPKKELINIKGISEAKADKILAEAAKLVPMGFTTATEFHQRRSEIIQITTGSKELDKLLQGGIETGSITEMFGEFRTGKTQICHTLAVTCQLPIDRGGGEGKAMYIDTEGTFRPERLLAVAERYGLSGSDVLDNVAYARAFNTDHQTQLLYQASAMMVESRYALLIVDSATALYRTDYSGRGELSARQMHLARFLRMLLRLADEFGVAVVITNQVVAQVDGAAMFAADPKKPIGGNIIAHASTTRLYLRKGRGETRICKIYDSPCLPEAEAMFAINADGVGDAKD
UniProt Q9UJX4, whole entry: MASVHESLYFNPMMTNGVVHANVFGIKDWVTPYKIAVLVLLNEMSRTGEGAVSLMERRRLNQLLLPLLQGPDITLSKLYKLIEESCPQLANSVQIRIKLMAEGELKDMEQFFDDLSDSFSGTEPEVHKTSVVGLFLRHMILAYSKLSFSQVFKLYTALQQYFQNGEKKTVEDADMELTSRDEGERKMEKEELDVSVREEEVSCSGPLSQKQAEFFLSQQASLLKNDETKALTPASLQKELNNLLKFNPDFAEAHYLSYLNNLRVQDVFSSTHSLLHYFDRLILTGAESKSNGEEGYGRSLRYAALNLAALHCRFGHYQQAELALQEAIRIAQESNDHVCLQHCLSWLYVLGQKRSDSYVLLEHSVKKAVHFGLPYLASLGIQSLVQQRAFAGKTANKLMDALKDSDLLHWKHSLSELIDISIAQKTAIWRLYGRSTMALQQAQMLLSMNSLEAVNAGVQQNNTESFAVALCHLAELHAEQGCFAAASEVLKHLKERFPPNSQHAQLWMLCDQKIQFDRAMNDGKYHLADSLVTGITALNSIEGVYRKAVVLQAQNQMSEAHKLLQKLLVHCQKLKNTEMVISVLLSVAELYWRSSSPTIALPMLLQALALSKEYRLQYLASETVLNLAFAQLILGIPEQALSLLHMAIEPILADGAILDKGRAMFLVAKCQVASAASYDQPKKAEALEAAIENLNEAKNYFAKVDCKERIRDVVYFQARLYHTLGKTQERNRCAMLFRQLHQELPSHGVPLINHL
UniProt Q15031: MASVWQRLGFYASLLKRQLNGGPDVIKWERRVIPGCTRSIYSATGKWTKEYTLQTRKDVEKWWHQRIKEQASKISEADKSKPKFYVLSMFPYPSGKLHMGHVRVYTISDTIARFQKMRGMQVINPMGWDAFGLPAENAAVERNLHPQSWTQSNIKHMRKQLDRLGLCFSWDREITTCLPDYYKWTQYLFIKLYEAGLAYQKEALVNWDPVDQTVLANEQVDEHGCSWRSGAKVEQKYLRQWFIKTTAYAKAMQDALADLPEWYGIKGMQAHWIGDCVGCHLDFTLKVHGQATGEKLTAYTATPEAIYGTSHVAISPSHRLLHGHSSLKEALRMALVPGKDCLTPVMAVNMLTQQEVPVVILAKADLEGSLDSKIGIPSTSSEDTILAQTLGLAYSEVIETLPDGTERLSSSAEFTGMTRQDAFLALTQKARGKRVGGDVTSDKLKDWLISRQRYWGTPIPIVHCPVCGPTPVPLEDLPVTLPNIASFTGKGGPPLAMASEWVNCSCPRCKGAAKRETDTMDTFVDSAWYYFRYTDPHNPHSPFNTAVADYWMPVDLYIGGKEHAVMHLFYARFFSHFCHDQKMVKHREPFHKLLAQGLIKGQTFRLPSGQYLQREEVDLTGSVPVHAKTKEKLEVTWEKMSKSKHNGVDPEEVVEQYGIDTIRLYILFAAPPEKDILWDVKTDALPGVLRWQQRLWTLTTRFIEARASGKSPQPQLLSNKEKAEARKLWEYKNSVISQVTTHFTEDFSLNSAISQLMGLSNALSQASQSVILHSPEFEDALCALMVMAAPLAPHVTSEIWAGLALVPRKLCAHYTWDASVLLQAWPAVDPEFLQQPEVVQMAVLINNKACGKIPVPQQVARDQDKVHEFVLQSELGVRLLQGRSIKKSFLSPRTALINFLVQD
UniProt Q03426, whole entry: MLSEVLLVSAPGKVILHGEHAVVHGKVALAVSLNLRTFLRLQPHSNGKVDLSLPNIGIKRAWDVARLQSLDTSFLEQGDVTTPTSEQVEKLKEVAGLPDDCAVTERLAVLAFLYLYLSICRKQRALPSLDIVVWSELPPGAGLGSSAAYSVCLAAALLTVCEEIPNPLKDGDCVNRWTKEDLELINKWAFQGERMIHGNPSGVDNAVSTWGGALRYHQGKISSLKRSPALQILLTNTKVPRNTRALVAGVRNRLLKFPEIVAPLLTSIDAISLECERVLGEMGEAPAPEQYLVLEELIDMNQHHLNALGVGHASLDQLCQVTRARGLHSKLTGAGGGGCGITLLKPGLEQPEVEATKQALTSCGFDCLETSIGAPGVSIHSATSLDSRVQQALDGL
UniProt P19404, whole entry: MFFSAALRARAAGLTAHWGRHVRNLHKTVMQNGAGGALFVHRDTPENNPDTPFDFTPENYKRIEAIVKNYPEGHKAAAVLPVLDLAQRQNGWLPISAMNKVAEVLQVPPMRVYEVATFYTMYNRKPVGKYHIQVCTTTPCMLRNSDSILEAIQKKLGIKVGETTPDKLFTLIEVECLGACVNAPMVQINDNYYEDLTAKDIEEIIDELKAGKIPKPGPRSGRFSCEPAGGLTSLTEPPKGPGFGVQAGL
UniProt Q99442: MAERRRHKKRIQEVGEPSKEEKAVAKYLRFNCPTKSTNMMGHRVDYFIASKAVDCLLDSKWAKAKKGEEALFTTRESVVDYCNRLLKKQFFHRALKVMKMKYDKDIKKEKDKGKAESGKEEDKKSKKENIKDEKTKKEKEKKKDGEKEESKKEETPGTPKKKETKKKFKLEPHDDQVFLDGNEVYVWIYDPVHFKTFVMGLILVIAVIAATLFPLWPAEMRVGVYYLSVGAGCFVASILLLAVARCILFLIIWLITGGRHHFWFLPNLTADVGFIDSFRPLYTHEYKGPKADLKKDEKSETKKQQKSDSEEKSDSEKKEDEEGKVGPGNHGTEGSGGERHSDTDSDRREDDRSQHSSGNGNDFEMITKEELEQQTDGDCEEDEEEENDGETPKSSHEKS

Compound: Nc1nc2c(ncn2[C@@H]2O[C@H](COP(=O)(O)OP(=O)(O)OP(=O)(O)O)[C@@H](O)[C@H]2O)c(=O)[nH]1 [guanosine triphosphate]
Test: NP40-soluble protein abundance relative to vehicle (solubility fold change) (ratio); higher = more soluble protein in presence of GTP
In short: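 Jurkat crude lysate prepared with a Dounce homogeniser was treated at eight concentrations spanning 0.1 to 10 mM, 10 min at room temperature then 3 min at 37 °C. Solubilisation with 0.8% NP40 and benzonase and ultracentrifugation preceded TMT labelling of the supernatant for LC-MS/MS. Fold change against the detergent-processed vehicle was determined per replicate from vsn-normalised intensities, across three independent experiments.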

Target	NP40-soluble protein abundance (concentration: 0.1mM)	NP40-soluble protein abundance (concentration: 0.5mM)	NP40-soluble protein abundance (concentration: 1mM)	NP40-soluble protein abundance (concentration: 2mM)	NP40-soluble protein abundance (concentration: 4mM)	NP40-soluble protein abundance (concentration: 6mM)	NP40-soluble protein abundance (concentration: 8mM)	NP40-soluble protein abundance (concentration: 10mM)
E9PK91 and related entries (UniProt Q9NYF8)	1.01 ± 0.062	1.1 ± 0.097	1.19 ± 0.059	1.24 ± 0.1	1.31 ± 0.076	1.42 ± 0.099	1.57 ± 0.15	1.7 ± 0.21
E9PL17 and related entries (UniProt Q92989)	1.13 ± 0.11	1.19 ± 0.17	1.07 ± 0.09	1.13 ± 0.15	1.11 ± 0.14	1.06 ± 0.13	1.01 ± 0.039	1.07 ± 0.093
E9PS74 and related entries (UniProt Q8NBI5)	1.06 ± 0.034	0.986 ± 0.079	0.986 ± 0.083	0.917 ± 0.095	0.993 ± 0.1	0.941 ± 0.054	1.03 ± 0.039	0.865 ± 0.056
F8W1T6 and related entries (UniProt Q15434)	0.955 ± 0.056	0.922 ± 0.069	0.99 ± 0.042	0.933 ± 0.089	0.961 ± 0.11	0.911 ± 0.15	0.949 ± 0.12	0.935 ± 0.098
G3XAI2 and related entries (UniProt P07942)	1.02 ± 0.19	0.952 ± 0.17	0.922 ± 0.12	0.924 ± 0.26	0.955 ± 0.2	0.929 ± 0.17	0.948 ± 0.15	0.966 ± 0.15
G3V2X9 and related entries (UniProt P12814)	0.974 ± 0.026	1 ± 0.021	0.973 ± 0.048	0.933 ± 0.037	0.93 ± 0.053	0.947 ± 0.053	0.933 ± 0.047	0.932 ± 0.068
E9PK26 and related entries (UniProt Q9NRS6)	1.02 ± 0.029	0.923 ± 0.06	0.961 ± 0.063	0.964 ± 0.025	0.997 ± 0.074	0.96 ± 0.097	0.944 ± 0.07	0.954 ± 0.053
F8VS36 and related entries (UniProt Q92994)	1.09 ± 0.11	1.01 ± 0.058	1.06 ± 0.096	1.03 ± 0.078	0.999 ± 0.058	1.03 ± 0.02	1.03 ± 0.12	1 ± 0.12
E7EQ34 and related entries (UniProt O14653+E7EQ34)	0.99 ± 0.044	1 ± 0.071	1.05 ± 0.082	1.05 ± 0.081	1.01 ± 0.025	1.08 ± 0.082	1.07 ± 0.062	1.16 ± 0.1
F5GXX5 and related entries (UniProt P61803)	0.93 ± 0.1	0.896 ± 0.07	0.863 ± 0.13	0.908 ± 0.043	0.886 ± 0.041	0.823 ± 0.065	0.794 ± 0.12	0.825 ± 0.072
F8WAZ6 and related entries (UniProt O75439)	0.962 ± 0.048	0.964 ± 0.022	0.926 ± 0.03	0.908 ± 0.023	0.898 ± 0.013	0.889 ± 0.0093	0.884 ± 0.046	0.866 ± 0.044
F6S8M0 and related entries (UniProt P15586)	0.8721 ± 0.0085	0.872 ± 0.023	0.911 ± 0.03	0.89 ± 0.03	0.874 ± 0.017	0.893 ± 0.018	0.868 ± 0.077	0.928 ± 0.057
F5H4R1 and related entries (UniProt Q9Y6R4)	1.08 ± 0.07	1.09 ± 0.11	1 ± 0.089	1.05 ± 0.15	1.06 ± 0.11	0.97 ± 0.12	0.964 ± 0.064	0.98 ± 0.12
E7EUI8 and related entries (UniProt P11413)	1.07 ± 0.06	1.06 ± 0.11	0.93 ± 0.035	0.927 ± 0.12	0.931 ± 0.093	0.896 ± 0.072	0.848 ± 0.076	0.803 ± 0.11
E9PI54 and related entries (UniProt Q06609)	1.02 ± 0.022	1.06 ± 0.028	0.9765 ± 0.0041	0.987 ± 0.04	0.946 ± 0.031	0.966 ± 0.027	0.97 ± 0.033	0.945 ± 0.0031
F5H0F9 and related entries (UniProt Q9UJX4)	1.07 ± 0.11	1.11 ± 0.12	1.03 ± 0.15	1.15 ± 0.13	1.16 ± 0.24	1.15 ± 0.2	1.13 ± 0.17	1.11 ± 0.19
F5H4V9 and related entries (UniProt Q16342)	1.03 ± 0.092	1.06 ± 0.058	1.04 ± 0.079	1.11 ± 0.09	1.14 ± 0.1	1.17 ± 0.064	1.16 ± 0.07	1.21 ± 0.13
E9PHM2 and related entries (UniProt Q15031)	1.04 ± 0.018	1.04 ± 0.045	0.918 ± 0.0099	0.94 ± 0.037	0.905 ± 0.01	0.916 ± 0.022	0.884 ± 0.042	0.852 ± 0.06
E9PCH4 and related entries (UniProt Q8TEU7+E9PCH4)	0.967 ± 0.021	0.9825 ± 0.0063	0.968 ± 0.023	0.96 ± 0.02	0.981 ± 0.016	0.969 ± 0.038	1.0058 ± 0.00029	0.9592 ± 0.0034
E9PFN5 and related entries (UniProt Q9Y2Q3)	0.922 ± 0.042	0.934 ± 0.038	0.895 ± 0.036	0.906 ± 0.043	0.887 ± 0.042	0.888 ± 0.031	0.829 ± 0.082	0.86 ± 0.079
F5GWT4 and related entries (UniProt Q9H4A3)	0.963 ± 0.058	0.99 ± 0.079	1 ± 0.081	0.96 ± 0.07	0.973 ± 0.061	0.978 ± 0.066	0.999 ± 0.074	0.994 ± 0.082
F5H8H2 and related entries (UniProt Q03426)	1.03 ± 0.043	1.01 ± 0.04	0.939 ± 0.056	0.957 ± 0.033	0.95 ± 0.038	0.931 ± 0.058	0.901 ± 0.073	0.896 ± 0.11
E9PLY5 and related entries (UniProt Q9UPN3+H3BQK9+H3BPE1+E9PLY5)	1 ± 0.058	0.997 ± 0.062	1.02 ± 0.063	1 ± 0.069	1.01 ± 0.052	1.01 ± 0.049	1.03 ± 0.067	1.02 ± 0.073
E7EPT4 and related entries (UniProt P19404)	0.959 ± 0.12	0.932 ± 0.12	1.14 ± 0.18	1.16 ± 0.13	1.2 ± 0.17	1.15 ± 0.17	1.14 ± 0.15	1.24 ± 0.24
F8W9P4 and related entries (UniProt O00329)	1.08 ± 0.08	1.06 ± 0.11	0.948 ± 0.05	1 ± 0.09	0.998 ± 0.077	0.937 ± 0.041	0.911 ± 0.051	0.902 ± 0.085
F8WF48 and related entries (UniProt Q99442)	0.941 ± 0.026	0.961 ± 0.035	0.938 ± 0.045	0.882 ± 0.073	0.888 ± 0.077	0.905 ± 0.062	0.935 ± 0.031	0.895 ± 0.048

Shown comma-delimited: entries from further up
Target,NP40-soluble protein abundance (concentration: 0.1mM),NP40-soluble protein abundance (concentration: 0.5mM),NP40-soluble protein abundance (concentration: 1mM),NP40-soluble protein abundance (concentration: 2mM),NP40-soluble protein abundance (concentration: 4mM),NP40-soluble protein abundance (concentration: 6mM),NP40-soluble protein abundance (concentration: 8mM),NP40-soluble protein abundance (concentration: 10mM)
F5H4V9 and related entries (UniProt Q16342),1.03 ± 0.092,1.06 ± 0.058,1.04 ± 0.079,1.11 ± 0.09,1.14 ± 0.1,1.17 ± 0.064,1.16 ± 0.07,1.21 ± 0.13
F5GWT4 and related entries (UniProt Q9H4A3),0.963 ± 0.058,0.99 ± 0.079,1 ± 0.081,0.96 ± 0.07,0.973 ± 0.061,0.978 ± 0.066,0.999 ± 0.074,0.994 ± 0.082
